From the supplement of paper PMC12067093, “Discovery and optimisation of a covalent ligand for TRIM25 and its application to targeted protein ubiquitination” (Chemical Science, 2025)
This is one part of the list.

The chains behind the UniProt entries cited, without tags or fusion partners. Where a name states a change or a piece, a line headed by the entry shows the natural chain unless it says otherwise.
UniProt O75170: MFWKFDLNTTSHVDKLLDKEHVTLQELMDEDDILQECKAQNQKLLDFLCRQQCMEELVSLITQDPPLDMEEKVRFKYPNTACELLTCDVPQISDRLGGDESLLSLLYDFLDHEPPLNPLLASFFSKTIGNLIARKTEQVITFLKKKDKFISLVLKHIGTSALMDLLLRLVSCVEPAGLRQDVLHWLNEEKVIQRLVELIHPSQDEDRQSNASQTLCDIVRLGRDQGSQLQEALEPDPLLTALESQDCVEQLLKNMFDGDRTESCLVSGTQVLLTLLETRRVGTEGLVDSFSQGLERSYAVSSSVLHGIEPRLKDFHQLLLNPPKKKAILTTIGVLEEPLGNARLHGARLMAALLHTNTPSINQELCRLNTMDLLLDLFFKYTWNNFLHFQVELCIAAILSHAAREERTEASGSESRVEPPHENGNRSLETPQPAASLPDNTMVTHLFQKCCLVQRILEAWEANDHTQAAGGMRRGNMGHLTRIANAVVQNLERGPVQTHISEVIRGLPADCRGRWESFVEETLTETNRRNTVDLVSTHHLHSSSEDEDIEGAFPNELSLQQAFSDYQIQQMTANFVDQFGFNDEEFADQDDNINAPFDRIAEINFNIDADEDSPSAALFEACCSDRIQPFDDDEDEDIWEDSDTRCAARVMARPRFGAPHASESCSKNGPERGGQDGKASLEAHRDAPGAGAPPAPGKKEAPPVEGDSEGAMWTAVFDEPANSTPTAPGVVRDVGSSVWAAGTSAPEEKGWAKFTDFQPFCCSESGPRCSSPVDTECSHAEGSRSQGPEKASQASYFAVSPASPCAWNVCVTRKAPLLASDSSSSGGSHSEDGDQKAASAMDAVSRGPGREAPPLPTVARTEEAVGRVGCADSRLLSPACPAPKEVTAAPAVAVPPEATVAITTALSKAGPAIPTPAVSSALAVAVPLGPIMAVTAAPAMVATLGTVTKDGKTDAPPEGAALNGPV
UniProt P62714, whole entry: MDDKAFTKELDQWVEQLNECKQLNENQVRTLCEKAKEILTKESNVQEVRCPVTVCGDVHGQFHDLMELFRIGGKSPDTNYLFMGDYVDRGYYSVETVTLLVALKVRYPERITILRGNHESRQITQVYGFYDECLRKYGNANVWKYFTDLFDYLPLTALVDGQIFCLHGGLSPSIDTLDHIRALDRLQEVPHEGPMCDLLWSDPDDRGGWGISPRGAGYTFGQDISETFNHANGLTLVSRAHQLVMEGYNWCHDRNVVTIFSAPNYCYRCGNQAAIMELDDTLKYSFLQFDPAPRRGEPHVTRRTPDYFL
UniProt P30041: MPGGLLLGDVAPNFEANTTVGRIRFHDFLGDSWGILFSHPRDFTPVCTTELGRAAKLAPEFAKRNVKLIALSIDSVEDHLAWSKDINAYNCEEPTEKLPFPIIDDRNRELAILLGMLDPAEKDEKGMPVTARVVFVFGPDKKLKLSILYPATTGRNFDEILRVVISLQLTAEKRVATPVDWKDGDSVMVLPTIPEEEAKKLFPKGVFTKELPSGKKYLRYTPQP
UniProt Q8WUA2: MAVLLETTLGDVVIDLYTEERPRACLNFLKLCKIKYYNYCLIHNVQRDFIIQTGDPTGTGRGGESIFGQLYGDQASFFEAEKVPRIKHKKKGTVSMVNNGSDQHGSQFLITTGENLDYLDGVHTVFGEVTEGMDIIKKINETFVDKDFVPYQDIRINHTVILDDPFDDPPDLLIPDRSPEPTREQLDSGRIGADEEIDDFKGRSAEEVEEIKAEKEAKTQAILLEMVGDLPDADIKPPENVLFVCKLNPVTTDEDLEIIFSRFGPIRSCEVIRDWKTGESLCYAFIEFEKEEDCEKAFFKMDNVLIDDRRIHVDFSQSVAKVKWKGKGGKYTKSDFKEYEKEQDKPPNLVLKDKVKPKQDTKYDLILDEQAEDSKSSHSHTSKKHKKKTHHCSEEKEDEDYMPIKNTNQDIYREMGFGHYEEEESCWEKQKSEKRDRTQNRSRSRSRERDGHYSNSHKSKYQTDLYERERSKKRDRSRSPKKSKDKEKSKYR
UniProt P53041: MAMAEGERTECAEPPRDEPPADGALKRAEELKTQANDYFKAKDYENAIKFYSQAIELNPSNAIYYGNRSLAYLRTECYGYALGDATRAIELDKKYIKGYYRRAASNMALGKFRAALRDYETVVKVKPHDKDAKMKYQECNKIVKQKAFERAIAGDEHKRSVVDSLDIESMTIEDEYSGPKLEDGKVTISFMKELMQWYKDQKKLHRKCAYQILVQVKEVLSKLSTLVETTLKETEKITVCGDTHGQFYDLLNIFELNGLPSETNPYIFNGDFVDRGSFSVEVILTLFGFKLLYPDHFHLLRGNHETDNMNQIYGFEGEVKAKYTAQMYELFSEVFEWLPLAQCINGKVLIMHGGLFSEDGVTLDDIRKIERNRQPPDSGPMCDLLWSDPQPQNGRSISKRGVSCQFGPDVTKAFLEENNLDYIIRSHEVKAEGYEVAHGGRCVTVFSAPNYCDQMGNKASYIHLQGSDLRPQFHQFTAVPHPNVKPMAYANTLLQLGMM
UniProt O95685: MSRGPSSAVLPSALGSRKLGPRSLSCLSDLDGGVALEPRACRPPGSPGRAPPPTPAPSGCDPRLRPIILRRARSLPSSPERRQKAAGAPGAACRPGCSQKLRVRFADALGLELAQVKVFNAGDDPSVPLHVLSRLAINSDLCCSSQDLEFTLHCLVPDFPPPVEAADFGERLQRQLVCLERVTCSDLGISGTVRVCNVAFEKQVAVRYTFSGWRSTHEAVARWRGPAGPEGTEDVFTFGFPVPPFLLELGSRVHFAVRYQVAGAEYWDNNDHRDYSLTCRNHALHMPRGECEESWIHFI
UniProt Q5H9R7: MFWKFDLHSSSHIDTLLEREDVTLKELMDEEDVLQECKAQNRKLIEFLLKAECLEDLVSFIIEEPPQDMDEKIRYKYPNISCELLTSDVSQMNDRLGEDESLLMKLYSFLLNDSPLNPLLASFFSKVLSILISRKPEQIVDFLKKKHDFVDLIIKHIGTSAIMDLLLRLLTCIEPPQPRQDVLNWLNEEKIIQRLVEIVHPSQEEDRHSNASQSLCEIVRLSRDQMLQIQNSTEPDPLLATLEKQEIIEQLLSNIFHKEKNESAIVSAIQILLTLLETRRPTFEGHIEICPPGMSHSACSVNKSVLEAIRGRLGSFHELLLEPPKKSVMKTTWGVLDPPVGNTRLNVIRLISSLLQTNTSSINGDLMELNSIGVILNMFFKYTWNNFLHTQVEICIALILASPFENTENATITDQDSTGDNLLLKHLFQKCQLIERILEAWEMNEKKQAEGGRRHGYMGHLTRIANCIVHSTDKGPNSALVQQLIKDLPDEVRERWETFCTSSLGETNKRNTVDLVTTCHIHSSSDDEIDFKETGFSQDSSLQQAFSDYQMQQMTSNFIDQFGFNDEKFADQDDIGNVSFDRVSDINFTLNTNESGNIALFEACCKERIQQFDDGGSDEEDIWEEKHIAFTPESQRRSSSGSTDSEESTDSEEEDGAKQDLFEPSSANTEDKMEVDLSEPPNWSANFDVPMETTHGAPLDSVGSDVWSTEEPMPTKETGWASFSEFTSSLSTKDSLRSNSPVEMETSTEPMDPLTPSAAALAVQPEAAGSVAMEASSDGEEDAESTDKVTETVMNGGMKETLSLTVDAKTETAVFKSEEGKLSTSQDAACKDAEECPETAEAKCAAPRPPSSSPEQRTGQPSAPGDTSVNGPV
UniProt P30153, whole entry, looked up: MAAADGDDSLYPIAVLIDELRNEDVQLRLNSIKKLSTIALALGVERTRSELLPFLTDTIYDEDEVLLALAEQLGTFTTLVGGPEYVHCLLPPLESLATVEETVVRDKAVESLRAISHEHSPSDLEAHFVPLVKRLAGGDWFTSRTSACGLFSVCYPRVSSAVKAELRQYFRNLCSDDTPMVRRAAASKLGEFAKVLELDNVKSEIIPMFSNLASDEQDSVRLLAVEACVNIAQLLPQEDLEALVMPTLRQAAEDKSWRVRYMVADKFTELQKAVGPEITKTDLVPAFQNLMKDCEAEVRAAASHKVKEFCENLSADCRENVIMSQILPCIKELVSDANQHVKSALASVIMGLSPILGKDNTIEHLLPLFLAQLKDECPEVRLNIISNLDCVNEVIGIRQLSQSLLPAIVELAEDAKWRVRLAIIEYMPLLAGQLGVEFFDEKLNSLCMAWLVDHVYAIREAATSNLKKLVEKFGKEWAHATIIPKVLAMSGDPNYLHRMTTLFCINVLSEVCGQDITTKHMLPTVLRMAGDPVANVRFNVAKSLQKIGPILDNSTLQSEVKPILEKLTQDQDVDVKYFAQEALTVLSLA
UniProt P60510: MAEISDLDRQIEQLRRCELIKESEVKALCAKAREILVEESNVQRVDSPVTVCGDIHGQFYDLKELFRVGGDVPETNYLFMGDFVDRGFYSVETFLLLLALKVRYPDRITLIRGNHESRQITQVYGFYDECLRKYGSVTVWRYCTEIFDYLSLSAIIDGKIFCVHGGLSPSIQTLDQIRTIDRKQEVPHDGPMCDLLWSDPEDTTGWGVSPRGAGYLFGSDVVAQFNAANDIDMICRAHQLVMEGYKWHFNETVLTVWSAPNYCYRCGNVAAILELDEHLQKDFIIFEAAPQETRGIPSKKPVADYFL
UniProt Q96QH2: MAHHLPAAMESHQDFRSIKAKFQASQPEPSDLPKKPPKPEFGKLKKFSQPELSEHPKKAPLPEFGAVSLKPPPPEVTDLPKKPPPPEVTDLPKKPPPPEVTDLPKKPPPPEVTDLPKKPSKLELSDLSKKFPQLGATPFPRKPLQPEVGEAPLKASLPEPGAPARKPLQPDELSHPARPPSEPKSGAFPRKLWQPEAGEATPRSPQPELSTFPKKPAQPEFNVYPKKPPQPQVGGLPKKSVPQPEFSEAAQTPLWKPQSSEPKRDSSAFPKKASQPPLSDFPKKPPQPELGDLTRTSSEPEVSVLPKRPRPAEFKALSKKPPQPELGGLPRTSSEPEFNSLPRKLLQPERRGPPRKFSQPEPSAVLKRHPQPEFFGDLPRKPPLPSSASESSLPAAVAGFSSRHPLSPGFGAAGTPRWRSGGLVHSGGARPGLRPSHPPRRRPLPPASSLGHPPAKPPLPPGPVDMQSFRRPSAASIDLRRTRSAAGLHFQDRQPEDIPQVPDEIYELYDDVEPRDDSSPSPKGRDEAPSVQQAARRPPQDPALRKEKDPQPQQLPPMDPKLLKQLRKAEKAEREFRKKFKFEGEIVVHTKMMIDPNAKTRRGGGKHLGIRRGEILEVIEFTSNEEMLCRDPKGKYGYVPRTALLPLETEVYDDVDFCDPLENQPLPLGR
UniProt P63098, whole entry, looked up: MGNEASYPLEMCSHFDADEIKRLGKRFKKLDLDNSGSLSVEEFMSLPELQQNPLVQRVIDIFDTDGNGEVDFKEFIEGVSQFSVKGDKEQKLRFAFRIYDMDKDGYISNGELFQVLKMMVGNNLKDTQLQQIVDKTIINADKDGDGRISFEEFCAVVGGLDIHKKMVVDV
UniProt P48147: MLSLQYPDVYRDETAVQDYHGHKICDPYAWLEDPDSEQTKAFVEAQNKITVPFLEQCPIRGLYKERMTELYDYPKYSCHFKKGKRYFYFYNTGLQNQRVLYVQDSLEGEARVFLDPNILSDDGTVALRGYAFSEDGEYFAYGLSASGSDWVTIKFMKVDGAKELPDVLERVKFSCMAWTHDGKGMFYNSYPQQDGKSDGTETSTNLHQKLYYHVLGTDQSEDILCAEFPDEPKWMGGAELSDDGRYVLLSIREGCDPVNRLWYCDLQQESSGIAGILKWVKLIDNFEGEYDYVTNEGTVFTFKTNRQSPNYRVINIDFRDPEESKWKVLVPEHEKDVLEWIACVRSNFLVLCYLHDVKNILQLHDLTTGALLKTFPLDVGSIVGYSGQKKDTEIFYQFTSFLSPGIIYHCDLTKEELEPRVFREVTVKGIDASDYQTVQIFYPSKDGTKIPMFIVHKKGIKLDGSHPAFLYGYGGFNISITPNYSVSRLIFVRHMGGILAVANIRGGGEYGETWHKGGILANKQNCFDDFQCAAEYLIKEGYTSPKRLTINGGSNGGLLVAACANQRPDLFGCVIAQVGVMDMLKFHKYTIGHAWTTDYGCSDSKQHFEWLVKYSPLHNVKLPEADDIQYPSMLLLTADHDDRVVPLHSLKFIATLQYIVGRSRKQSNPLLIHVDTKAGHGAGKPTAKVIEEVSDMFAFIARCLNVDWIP

Compound: CC1Cc2ccccc2N1C(=O)C1CCCN(C1)C(=O)CCl (mixture of isomers) [TRIM25 ligand 11 (diastereomer mixture)]
Test: probe-labelled cysteine peptide fold change vs DMSO (competition) (log2 fold change); higher = less target engagement (more negative = stronger competition)
Conditions: THP-1, incubation time: 4 h
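Note: competitive chemoproteomic profiling in live THP-1 cells with an iodoacetamide desthiobiotin (IA-DTB) probe, comparing probe-labelled peptide intensities in compound-treated cells against DMSO-treated controls.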

PPP6R2_O75170_366_LMAALLHTNTPSINQELCR (UniProt O75170)
probe-labelled cysteine peptide fold change (10 µM): 0.377 | probe-labelled cysteine peptide fold change (50 µM): 0.281

PPP2CB_P62714_20_ELDQWVEQLNECK (UniProt P62714)
probe-labelled cysteine peptide fold change (10 µM): -0.0508 | probe-labelled cysteine peptide fold change (50 µM): 0.0214

PRDX6_P30041_91_DINAYNCEEPTEKLPFPIIDDR (UniProt P30041)
probe-labelled cysteine peptide fold change (10 µM): -0.447 | probe-labelled cysteine peptide fold change (50 µM): -0.386

PPIL4_Q8WUA2_40_YYNYCLIHNVQR (UniProt Q8WUA2)
probe-labelled cysteine peptide fold change (10 µM): 0.242 | probe-labelled cysteine peptide fold change (50 µM): 0.263

PPP5C_P53041_11_AMAEGERTECAEPPRDEPPADGALK (UniProt P53041)
probe-labelled cysteine peptide fold change (10 µM): 0.0324 | probe-labelled cysteine peptide fold change (50 µM): -0.264

PPP1R3D_O95685_26_SLSCLSDLDGGVALEPR (UniProt O95685)
probe-labelled cysteine peptide fold change (10 µM): -0.077 | probe-labelled cysteine peptide fold change (50 µM): -0.198

PPP6R3_Q5H9R7_431_CQLIER (UniProt Q5H9R7)
probe-labelled cysteine peptide fold change (10 µM): 0.132 | probe-labelled cysteine peptide fold change (50 µM): 0.111

PPP2R1A_P30153_512_MTTLFCINVLSEVCGQDITTK (UniProt P30153)
probe-labelled cysteine peptide fold change (10 µM): 0.0527 | probe-labelled cysteine peptide fold change (50 µM): 0.183

PPP4C_P60510_193_KQEVPHDGPMCDLLWSDPEDTTGWGVSPR (UniProt P60510)
probe-labelled cysteine peptide fold change (10 µM): -0.118 | probe-labelled cysteine peptide fold change (50 µM): -0.252

PPP2R1A_P30153_310+317_EFCENLSADCR (UniProt P30153)
probe-labelled cysteine peptide fold change (10 µM): 0.0915 | probe-labelled cysteine peptide fold change (50 µM): -0.0288

PRAM1_Q96QH2_629_RGEILEVIEFTSNEEMLCR (UniProt Q96QH2)
probe-labelled cysteine peptide fold change (10 µM): 0.103 | probe-labelled cysteine peptide fold change (50 µM): 0.36

PPIL4_Q8WUA2_392_THHCSEEK (UniProt Q8WUA2)
probe-labelled cysteine peptide fold change (10 µM): 0.112 | probe-labelled cysteine peptide fold change (50 µM): -0.0364

PPP3R1_P63098_154_ISFEEFCAVVGGLDIHKK (UniProt P63098)
probe-labelled cysteine peptide fold change (10 µM): -0.0562 | probe-labelled cysteine peptide fold change (50 µM): -0.095

PREP_P48147_25_ICDPYAWLEDPDSEQTK (UniProt P48147)
probe-labelled cysteine peptide fold change (10 µM): 0.208 | probe-labelled cysteine peptide fold change (50 µM): -0.0381
